Experimental findings from PubChem BioAssay AID1508600 (Functional Genomics Laboratory (NCATS/FGL), 2020) are described below.

In all, about 53,000 sequences went through this assay and about 3,700 (7%) were called active.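 Rule for the calls: active = gene knockdowns whose robust z-score for IL-1 alpha signal is at least 2 or at most -2, so actives lie on both sides; inactive = the rest.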 The list shows a part of the results.

The assay in a line: Components of the Cytosolic LPS Sensing Pathway: Gene Identification via Genome-wide siRNA Screen.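 Note: robust z of the log signal after scaling to non-targeting control siRNA wells of the plate.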 The settings on record: RAW264.7 macrophages, IL-1a HTRF, actives lie on both sides, screened at 100 nM (by protocol), cells primed 5 h with Pam3CSK4 first. In a few lines:
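IL-1a HTRF of supernatants after 24 hour LipidA transfection of Pam3CSK4-primed (5 hours) RAW264.7 cells, 48h post-siRNA transfection (100 nM). Scores: percent of plate negative-control median, then log-based robust z-score.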
(In general: Time-resolved FRET reads energy transfer from a long-lived donor to a nearby acceptor.)
Turning to CCUAUCCUACUGUCAAGAUTT against Nfkb2, the z-score is inactive: 0.689.

In the case of GCCGUUUACCUUAGUCUGUTT against Cyb5rl, the z-score is inactive: 0.00283.

Turning to CGCUAAGCUUAUUGAGUCUTT against Sh3bp5l, the z-score was inactive: -0.673.

As to GGUUGAGAAACCAAUUUCATT against Retnlb, the z-score was inactive: 0.46.

Consider GGCAUUCUCUAUGAAGCUGTT against Vrk3, for which the z-score is inactive: -1.98.

As for CGACUUGUCAUGAACCAAATT against Atrx, the z-score was inactive: -0.597.

Regarding GGCAAAUGUAGACAUGUAUTT against Defb44-ps, the z-score is inactive: -0.0483.

For GGUAAAGACGUAAACUUACTT against Rhpn2, the z-score is inactive: 0.729.

With “GGUUUCUGCCCAGAGUCUATT against 2010106E10Rik”, the z-score is active: -2.78.

For the sequence GGAUGAGAACAACUCUGCUTT against Lrtm2, the z-score is inactive: 0.439.

Consider GGAUGUUGAUCUGACUCACTT against Ppp1r7, for which the z-score was inactive: -0.0181.

In the case of AUAUAUGCUUACCUUGCUATT against Ubl5, the z-score was inactive: 0.738.

As to GCUGUUAACUUGGAAGACUTT against Fut11, the z-score was inactive: -0.0284.

On to CGAGAUCAGGCUACGUCGATT against Fam171a2, for which the z-score was inactive: -1.51.

CCUGAUCACCAGAUGCUGATT against Sprr1a: the z-score is inactive: 1.73.

Take GGAGAAGAAAGUGUUGAAATT against Klhdc4: the z-score is inactive: 1.79.

Regarding GGCAGCCAAGAAAAUGUUATT against Gstt2, the z-score is inactive: -0.836.

As for GCCAUUAAUAAUCAGUACUTT against Sh2b1, the z-score is inactive: 0.357.

As to GCUCUAUGUCAGAAACCAGTT against C4bp, the z-score is inactive: -0.338.

As to CCUUUGGUGAAGCCUGGAUTT against Kiss1, the z-score was inactive: -0.0609.

Consider GCGGAAAAGGGAGUUGCCUTT against Hand1, for which the z-score is inactive: -1.79.

For GCAGUCUUAAUUCAUGGUGTT against Slco6c1, the z-score was inactive: 0.183.

Turning to GCUGAAGCAUGCCCGUAAUTT against Racgap1, the z-score is inactive: -0.191.

As for GGACUCUCAGAAGAAUGAUTT against Hmmr, the z-score is active: 2.98.

Consider GGAGCUGGAUUCAUUGACGTT against Chil4, for which the z-score is inactive: 0.612.

As for GUGACUCCCAAACUCCUGATT against Olfr1180, the z-score is inactive: -1.81.

With CCUAAAGUCUGAAUGUUCCTT against Il3, the z-score is inactive: -0.421.

For GGGUGAUGAUCUUCAGCAATT against Txnrd3, the z-score was inactive: -0.616.

In the case of GGUUUUUGAACUGGUAAGATT against Olfr725, the z-score was inactive: -1.34.

With CGAGAGAUGUAACAAAAAGTT against Sele, the z-score is inactive: 0.446.

As for GGUUCAAGGCAACACUGUGTT against Ankrd13d, the z-score was inactive: -1.54.

For GCUCGAGUACCUGUACCUATT against Elfn1, the z-score was active: 3.11.

With GGCCCACAAGUACCGUUACTT against Gcat, the z-score is inactive: -0.317.

For CCCAAUCACUUAUUGAAACTT against Vcan, the z-score was inactive: 1.07.

Consider GGCUGAAGUUAUCCUGCCATT against Antxrl, for which the z-score was inactive: 1.97.

For the sequence CCAAAGUGGACACAAUUGCTT against Ephb6, the z-score is inactive: -1.43.

For GCUGUCUCAAUCACCCUAATT against Olfr1427, the z-score was inactive: -1.23.

Consider GGCCAAGAACUCCAAGCAUTT against Ercc6, for which the z-score was inactive: -1.15.

As for GGGUAAAGACCUCAAUGAATT against Slitrk1, the z-score was inactive: -1.09.

Consider GGACUUCCUAAGCAACUCATT against Mycs, for which the z-score was inactive: 0.486.

Consider CCUUCCACAAAUACUCAGGTT against S100a4, for which the z-score was inactive: 0.562.

In the case of CCAGUUUAUCACAUAACCUTT against Wasl, the z-score is inactive: -0.928.

With CCAUCUUGAAUUACCUCCGTT against Tnfaip1, the z-score was inactive: -1.04.

GGAUGAAGAUGGAGAUCUUTT against Tfg: the z-score is active: 2.14.

Turning to GCUCUACUUGUAUAUGCCCTT against Sdr16c5, the z-score is inactive: 0.61.

Consider GGACUCCCUUACUUUAUUATT against Mertk, for which the z-score was inactive: -0.367.

With GGGAAAACAGAAGAGUUUGTT against Ctr9, the z-score was inactive: -0.454.

In the case of GGGCGAACAGGACAAUUAUTT against Med22, the z-score was inactive: -0.421.

As to GCUGAAAUCAGAAGCUAACTT against Casc3, the z-score is inactive: -0.468.

As for GCCGUCUUGUGUGUAUCAATT against Olfr1342, the z-score was inactive: -0.186.

In the case of UUCACUUUUUCACUGGAAUTT against Olfr1228, the z-score is inactive: -0.264.

Consider CGGCAGAUACUGAUACUGCTT against Actn1, for which the z-score is inactive: 1.58.

For GGAACCUGUUUGUUUAUCATT against Adap2, the z-score was inactive: 1.18.

GGGAGAUGUUUGUUUUCAATT against Mmp16: the z-score was active: 3.52.

As for GGGACGACCAUAUUUAUUUTT against Psma2, the z-score is inactive: -1.58.

For the sequence GGGAAAUUGGUGCUACAUGTT against Eln, the z-score was inactive: 0.272.

For GGGUCAUUGAUAUCUUAAGTT against Bcl3, the z-score was inactive: 0.594.

Take GCUCAAACAGAUACACGGATT against Ap2a2: the z-score was inactive: -0.346.

For the sequence GGCUGAGAAAGAAAUUAGGTT against Naip3, the z-score was inactive: -0.129.

Consider GGAUCAUACCAUACUGGCCTT against Tppp, for which the z-score is inactive: 0.0222.

GCUGAAACCCUUCGUACAGTT against Prl8a8: the z-score was inactive: 0.391.

For the sequence GAGGUUUAUUGUAAUGGCUTT against Olfr1271, the z-score was inactive: 0.177.

As to GCUGAUGCUCUUAAGCUAUTT against Pelp1, the z-score is inactive: 0.143.

On to GCCCAUGUAUCCAAAAGAATT against Cnmd, for which the z-score was inactive: -1.59.

In the case of AGAACAGCUACUUUCUGACTT against Cebpe, the z-score is inactive: 0.606.

Turning to CCUCGUGUUAUGCAUGGAATT against Kitl, the z-score was inactive: -0.0574.

For the sequence GGAUCCUAAGGUCAUGAUCTT against Imp4, the z-score was inactive: -0.226.

For GACUGGGUAACCCAUCCCUTT against Srd5a1, the z-score is inactive: -0.203.

For GGCUCAGUUUACAAACCUGTT against Mbd6, the z-score is inactive: -0.969.

Take GGUUUUCAAAAGUGGAGAATT against Ubr1: the z-score was inactive: -0.362.

On to “CCUGAUCUUAAACAAAGAATT against 2610507B11Rik”, for which the z-score is inactive: -0.742.

As for GGUUUUUGUCCCAUCUUGGTT against Zc3h12d, the z-score was inactive: 0.228.

Turning to GCAGGACAAAUUGGUUGUGTT against Olfr457, the z-score is inactive: -0.342.

GGUUUCAUUUGGAUUUGCATT against Glyr1: the z-score is inactive: 0.491.

Take GGCAAUAGGCAAUGGAAAATT against Vmn2r30: the z-score is inactive: -0.751.

Consider CGGGAUCUUAGAAGAGCAATT against Ptpre, for which the z-score is active: 2.6.

For GGCAGAGACAAAGAAACUUTT against Trap1, the z-score is inactive: -0.0864.

On to UGUGACUAUUGUUACUGUGTT against Olfr1512, for which the z-score is inactive: -1.06.

On to GGAUUCAGCAGCUUCAGAATT against Rex1bd, for which the z-score was inactive: 0.221.

Turning to GAAUUACACACAGGCCUGATT against Olfr1048, the z-score was inactive: 0.306.

Take GCCUAACCUGCAUCAGUCATT against Olfr689: the z-score is inactive: -1.03.

For the sequence CCCGUCCUCUCAAAAACUATT against Bcl2l14, the z-score is inactive: -1.6.

Regarding GCUAUAGGGACCUCUGUCATT against Cdh5, the z-score is active: -2.72.

With GCAACCGAAUUUUACCUCUTT against Olfr820, the z-score was inactive: -0.119.

For CGAUGCAAAAAGAAUAGACTT against Mark1, the z-score was inactive: 0.673.

Take GCACGAGUAUGUUUGACAUTT against Limch1: the z-score was inactive: 0.379.

With GGUGAGGACCAAAAGCUGGTT against Plcd4, the z-score is inactive: -1.16.

As for “GGAUCACUAUUGCUCCCAUTT against 4930432K21Rik”, the z-score is inactive: -0.752.

As for GCUAUCGGCGUGAGUAACCTT against Gk2, the z-score was inactive: -0.294.

For GGAGAUUUCUUCAUCUUUUTT against Tango6, the z-score is inactive: -0.934.

Consider GGAAUAGCAUAAACACAGUTT against Epm2aip1, for which the z-score was inactive: -1.28.

For GGGAAACAGCAAAAUGAAATT against Bcas1, the z-score is inactive: -0.677.

Consider GUACUAGCUAAUUGGGCCATT against Speer4b, for which the z-score was inactive: 0.651.

In the case of CCCAGAAGGAAUGGCUAAATT against H2ap, the z-score is inactive: -0.757.

In the case of CCAAGAUAGUCCCUAUCCCTT against Scamp3, the z-score is inactive: 0.346.

Regarding GGAAAUUGUUUGAGAGGUATT against Edn3, the z-score is inactive: -1.89.

In the case of GGGCAUGGCCUUUACACUUTT against Me3, the z-score is inactive: -0.842.

For GGAGAAGUUCAAAGUGAGGTT against B3gnt3, the z-score was inactive: -1.51.

As to GGAAAAAAUCAAGAACAUCTT against Tmc2, the z-score was inactive: -0.556.

For the sequence CCUAUGCUUUUUUGUAAGATT against Il13ra2, the z-score is inactive: 0.126.

Take GGUCUUCAUACCUGUUCUATT against Zik1: the z-score was inactive: 1.33.

Regarding GGAAUAUUCACAGUCCGAGTT against Zfand3, the z-score was active: -2.18.

For GGUAAAUACAGCAGUCCAGTT against Crls1, the z-score is inactive: -0.119.

In the case of GGCUUUUGAAGCCAUCAAGTT against Mrpl57, the z-score was inactive: -1.2.

For the sequence GCACCCUCUUAUGAAUUUATT against Tstd2, the z-score is inactive: 0.873.

For GGAAACUCGUACUUUAUCATT against Igf2r, the z-score was inactive: 0.266.

Take GGCACUGAAUUCUGUUGCUTT against Slc22a30: the z-score is inactive: 0.224.
